Several values for one entry are separate records, joined by “and”; a condition that tells them apart may be missing. Equal values may be shown once. The campaign covered roughly 2,000 compounds. Fewer than 10 were called active.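 How the source made its calls: active means growth inhibition of at least 75% in every replicate, which also brings the mean inhibition to 75% or more; inconclusive means mean inhibition 75% or more but some replicate under 75%; inactive means the rest.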 The list shows a part of the results.

A short description of the assay: growth inhibition of PfHsp90-dependent yeast, primary screen, antimalarial PfHsp90 inhibitor project, S. cerevisiae, BacTiter-Glo luminescence (AID 504594).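 Further: 0% = DMSO neutral control wells and 100% = 20 µM radicicol control wells; higher value means stronger growth inhibition because the sign is flipped.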 Particulars: S. cerevisiae expressing PfHsp90, BacTiter-Glo growth, 48 h; at 9.4 µM; stronger effect = higher value.
Consider `CC1(C)c2ccccc2N2CC(=O)N(CC(N)=O)C21C` (stereo unspecified), for which the growth inhibition is inactive: 10.5%.

Take `COCC(C)NC(=O)c1ccc(CN2CCc3ccccc3C2)cc1` (stereo unspecified): the growth inhibition is inactive: 8.71%. `C[C@@H]1CCC[C@H](C)N1NC(=O)c1ccc(Cl)c(S(N)(=O)=O)c1`: the growth inhibition is inactive: -3.25%. In the case of `CC(C)C(CCN1C(=O)CCC1=O)C1CCOC(C)(C)C1` (stereo unspecified), the growth inhibition was inactive: -4.23%.

As for `Cc1ccc2[nH]c3c(=O)n(CCCN4CCN(C)CC4)cnc3c2c1`, the growth inhibition is inactive: 2.95%. Regarding `CC(C)[C@H](NC(=O)[C@@H]1CSCN1C(=O)OC(C)(C)C)C(=O)NCC1CCC(C(=O)O)CC1` (stereo partly specified), the growth inhibition is inactive: 6.5%. For the molecule `Cc1ccc2c(c1)c1c3n2CCCN(Cc2ccccc2)C3CCC1` (stereo unspecified), the growth inhibition is inactive: 0.335%. To `COc1ccc(C(=O)[C@H]2[C@H]3C(=O)N(c4ccccc4)C(=O)[C@H]3C3C=CC=NN32)cc1` (stereo partly specified) belongs inactive: 15.9%; to `CCc1c(C)c2ccc(OCC(=O)OC(C)C)c(C)c2oc1=O`, inactive: 4.15%. For `CC1=NS(=O)(=O)c2cc(Cl)ccc2N1`, the growth inhibition was inactive: -13.6%. For `CC(C)NCC(O)COc1ccc(CC(N)=O)cc1` (stereo unspecified) the value was inactive: 2.22%. Take `CCOC(=O)[C@H]1O[C@@H]1C(=O)N[C@@H](CC(C)C)C(=O)NCCC(C)C`: the growth inhibition is inactive: 6.21%. As to `CC[C@H](CO)NCCN[C@H](CC)CO`, the growth inhibition is inactive: -8.88%. To `Cc1ccccc1NC(=O)C1(C)Cc2ccccc2C(=O)O1` (stereo unspecified) belongs inactive: 8.78%; to `Cc1cc(-c2nn(-c3ccccc3F)cc2CN2CCC(O)CC2)c(C)s1`, inactive: 14.1%. Regarding `OC(COCc1ccccc1)CN1CCN(Cc2ccc3c(c2)OCO3)CC1` (stereo unspecified), the growth inhibition was inactive: -0.683%.

Take `O=C(NCC1CCCO1)c1ccc(OC2CCN(C(=O)C3CC3)CC2)cc1` (stereo unspecified): the growth inhibition is inactive: -13.6%.

As for `O=C(O)C1CCN(C(=O)COc2ccc3c4c(c(=O)oc3c2)CCC4)CC1`, the growth inhibition is inactive: 9.44%.

In the case of `CC1(C)CC(C(CC(=O)N2CCCC2)Cc2ccccc2)CCO1` (stereo unspecified), the growth inhibition was inactive: -4.75%. For `Cc1ccc(OCc2nc(-c3cccnc3)no2)cc1C`, the growth inhibition is inactive: -16.7%. `Nc1cnn(C2OC(CO)C(O)C2O)c(=O)n1` (stereo unspecified): the growth inhibition was inactive: -3.71%.

With `O=C(OCC1OC2OC3(CCCCC3)OC2C2OC3(CCCCC3)OC12)c1ccccc1` (stereo unspecified), the growth inhibition is inactive: -3.4%. On to `c1ccc2c3c(c(CN4CCCCC4)cc2c1)COC3`, for which the growth inhibition was inactive: 0.356%.

With `Cc1ccc(CSCC(=O)N2CCCC2)cc1`, the growth inhibition was inactive: -5.17%. For `CCC(C(=O)Nc1ccc2c(c1)OCCO2)c1ccccc1` (stereo unspecified) the value was inactive: -7.31%; for `Cc1ccc(C2CC(=O)C(C=NCCN3CCN(C(=S)Nc4ccccc4)CC3)=C(O)C2)cc1` (stereo unspecified), inactive: 5.87%. For `COc1ccc(C2C(C#N)=C(N)Oc3cc(C)[nH]c(=O)c32)c(OC)c1OC` (stereo unspecified) the value was inactive: -8.42%. For the molecule `CCC1(c2ccccc2)C(=O)NCNC1=O`, the growth inhibition was inactive: 9.69%. For `O=C(CSCc1ccccc1)NCCCN1CCOCC1` the value was inactive: 7.68%; for `CCOc1ccc(NC(=O)N[C@@H](CCSC)C(=O)OC)cc1`, inactive: -22.7%; for `C[C@]12CCC(=O)C=C1CC[C@@H]1[C@@H]2CC[C@@]2(C)[C@H]1CC[C@]2(O)C(=O)CO`, inactive: -15.5%. To `Cc1oc2ccc(OC(=O)c3cccs3)cc2c1C(=O)OC(C)C` belongs inactive: 20%.

For the molecule `COc1ccc(C2NCCC3(O)CCCCC23)c(OC)c1OC` (stereo unspecified), the growth inhibition was inactive: -8.77%. For `c1ccc(-c2ccc(C(c3ccccc3)n3ccnc3)cc2)cc1` (stereo unspecified) the value was active: 91.6%. On to `CN(C)CCC(c1ccc(Br)cc1)c1ccccn1` (stereo unspecified), for which the growth inhibition was inactive: 1.8%. Turning to `CC(=O)NC1C(OCc2ccccc2)OC(COC(C)=O)C(OC(C)=O)C1OC(C)=O` (stereo unspecified), the growth inhibition is inactive: -4.4%.

With `CC(=O)[C@@]1(O)CC[C@H]2[C@@H]3CCC4=CC(=O)CC[C@]4(C)[C@H]3CC[C@@]21C`, the growth inhibition is inactive: 1.16%. For `CC(C)CC(=O)N(Cc1ccc(F)cc1)C1CCS(=O)(=O)C1` (stereo unspecified) the value was inactive: -4.59%; for `COc1ccccc1NC(=O)Cn1c(C)cc(=O)c2cccc(OC)c21`, inactive: -4.81%; for `O=C(/C=C/c1ccc(Cl)cc1)NCCc1ccccc1`, inactive: -7.92%. For `COc1ccc(-c2nc3c(=O)n(C)c(=O)[nH]c3n2CCc2ccccc2)cc1` the value was inactive: -11.2%. To `CCN(CC)C(=O)c1ccc(O)c(OC)c1` belongs inactive: -8.19%; to `CC1(C)CC(NCc2ccccc2)CCO1` (stereo unspecified), inactive: -19.1%; to `CCc1c(C(C)=O)oc2ccc3c(C)cc(=O)oc3c12`, inactive: -7.18%.

In the case of `O=C1c2ccccc2N2C(=O)c3ccccc3C2N1Cc1ccco1` (stereo unspecified), the growth inhibition is inactive: -6.35%. Consider `CC12CN3CC(C)(CN(C1)C3c1ccc([N+](=O)[O-])o1)C2` (stereo unspecified), for which the growth inhibition was inactive: -3.86%.

For `COc1ccc(CCN2C(=O)CSC2c2ccc(OC)c(OC)c2)cc1OC` (stereo unspecified), the growth inhibition is inactive: 2.57%. For `Clc1ccc2c(c1)CCc1cccnc1C2=C1CCNCC1` the value was inactive: 6.97%. For `Cc1csc(N)n1` the value was inactive: -7.1%. To `COc1ccc(O)c(C2=Nc3ccccc3N=C(c3ccccc3)C2)c1` belongs inactive: -7.9%. On to `CCCNC(=O)NS(=O)(=O)c1ccc(Cl)cc1`, for which the growth inhibition is inactive: 19.8%. For the molecule `CC(=O)O[C@]1(C(C)=O)CC[C@H]2[C@@H]3C=C(Cl)C4=CC(=O)CC[C@]4(C)[C@H]3CC[C@@]21C`, the growth inhibition was inactive: -11.2%.

Consider `NC(N)=NC(N)=Nc1ccc2ccccc2c1`, for which the growth inhibition was inactive: -11.6%. For `Cc1cc(C(=O)NC(CC(C)C)C(=O)O)cc(C)c1[N+](=O)[O-]` (stereo unspecified) the value was inactive: -5.58%.

On to `CC(C)CN(C)Cc1c(C(=O)N2CCc3ccccc3C2)nc2ccc(Cl)cn12`, for which the growth inhibition was inactive: -1.22%. Turning to `COc1ccc(C(=O)N2c3cc4c(cc3C(C)=CC2(C)C)OCO4)cc1`, the growth inhibition was inactive: 10.9%. To `COc1ccc(CCn2c(C)cc3c(c2=O)C(c2ccncc2)C(C#N)=C(N)O3)cc1OC` (stereo unspecified) belongs inactive: -3.67%; to `Cc1ncc(CN2CCC(CO)(CCc3ccccc3)CC2)s1`, inactive: 17.3%; to `O=C(/C=C/c1ccccc1)NCC1(c2ccccc2)CCOCC1`, inactive: -5.5%. For `CC1(C)C2CCC1(C)C(OCC[N+](C)(C)CC(=O)OC1CCCCC1)C2` (stereo unspecified) the value was inactive: -1.87%. For the molecule `CCOc1ccc(N2C(=O)CNC2=S)cc1`, the growth inhibition is inactive: -1.5%. With `Nc1nc2c(ncn2COC(CO)CO)c(=O)[nH]1`, the growth inhibition is inactive: 12.1%. To `CC(=O)OC[C@H]1O[C@@H](Sc2cccc3cccnc23)[C@H](OC(C)=O)[C@@H](OC(C)=O)[C@H]1OC(C)=O` belongs inactive: 3.67%; to `CC(C)CCNC(=O)[C@H](CC(C)C)NC(=O)[C@H]1O[C@@H]1C(=O)O`, inactive: -0.406%; to `CNCCc1ccccn1`, inactive: -0.0227%. For `CC(C)CC(NC(=O)c1cccc(Cl)c1)C(=O)O` (stereo unspecified) the value was inactive: 1.31%; for `CCOc1cc2c(cc1OCC)C(c1ccccc1)N(c1ccc(C(=O)O)cc1)C(=O)C2` (stereo unspecified), inactive: 7.83%; for `O=C(CCN1CCC(c2ccccc2)C1)c1ccc2c(c1)OCCO2` (stereo unspecified), inactive: 1.38%. To `c1ccc(Cn2nnc3cnccc32)cc1` belongs inactive: 11.3%. Regarding `CCOc1ccc(C(=O)/C=C/c2cc(OC)c(OC)c(OC)c2)cc1`, the growth inhibition was inactive: 6.75%.

On to `COc1ccc(NC(=O)CC2C(=O)N(C)C(=S)N2Cc2ccncc2)cc1` (stereo unspecified), for which the growth inhibition was inactive: 1.18%. `Nc1ccn([C@@H]2O[C@H](CO)[C@@H](O)[C@@H]2O)c(=O)n1`: the growth inhibition is inactive: -3.61%. For `COc1cc2c(cc1OC)-c1cc(NC3CCCCCC3)nc(=O)n1CC2` the value was inactive: -3.84%; for `NC(N)=N/N=C/c1cccc(Cl)c1Cl`, inactive: -4.6%; for `COc1ccc(CCN=CC2=C(O)CC(C)(C)CC2=O)cc1`, inactive: 1.7%. To `C=CCNC(=O)c1ccc(-c2cccc([N+](=O)[O-])c2)o1` belongs inactive: 0.359%; to `CC(C)CCC1(CCNC(C)c2cccs2)CCOC(C)(C)C1` (stereo unspecified), inactive: 1.5%.

As to `COc1ccc(CC(=O)c2c(O)cc(O)cc2O)cc1OC`, the growth inhibition is inactive: 9.31%.

Regarding `C[C@@H]1C[C@H]2[C@@H]3C[C@H](F)C4=CC(=O)C=C[C@]4(C)[C@@]3(F)[C@@H](O)C[C@]2(C)[C@@]1(O)C(=O)COC(=O)C(C)(C)C`, the growth inhibition is inactive: 16.7%. To `O=C1C(=O)N2C(=C1C(=O)N1CCCCCC1)c1ccccc1CC21CCCC1` belongs inactive: -4.5%.

`O=C(CN1C(=O)c2ccccc2C1=O)Nc1cccc([N+](=O)[O-])c1`: the growth inhibition is inactive: 8.15%. To `O=c1[nH]cnc2c1ncn2[C@@H]1O[C@H](CO)[C@@H](O)[C@H]1O` belongs inactive: -4.94%. Consider `CCc1nc2ccccc2n1Cc1ccc(OC)c(OC)c1`, for which the growth inhibition was inactive: 2.55%. For `O=C(O)C[C@@H](O)C(=O)O` the value was inactive: -8.31%; for `O=c1ccc2ccccc2o1`, inactive: -13.2%. In the case of `CC(=O)Oc1ccc2occ(/C=N/c3cc(=O)[nH]c(=S)[nH]3)c(=O)c2c1`, the growth inhibition is inactive: -8.02%. To `CC1(C)CC(CNCCC(c2ccc(F)cc2)c2ccco2)CCO1` (stereo unspecified) belongs inactive: -5.05%; to `CN(C)CCCN1c2ccccc2Sc2ccc(Cl)cc21`, inactive: 7.05% and inactive: 9.61%. `COc1ccc(C(=O)Nc2cccc3cccnc23)cc1OC`: the growth inhibition is inactive: 6.56%. As to `Cc1nonc1CN(C)C(=O)c1ccc(OC2CCN(Cc3ccccn3)CC2)cc1`, the growth inhibition was inactive: 0.816%. For `COc1ccc(-c2onc(C)c2-c2ccc(C(=O)OC(C)C)o2)c(O)c1` the value was inactive: 7.86%; for `O=C(Oc1cccccc1=O)c1ccccc1`, inactive: 11%. For `O=C(O)CCCCCN1C(=O)C(=O)/C(=C(/O)c2ccccc2)C1c1ccccc1` (stereo unspecified) the value was inactive: -4.55%. As for `Cn1c2c(c(=O)[nH]c1=O)C(c1ccc(O)cc1)C1=C(N2)c2ccccc2C1=O` (stereo unspecified), the growth inhibition is inactive: 1.24%.

As to `CN(C)CCOCCOc1ccc(Cl)cc1Br`, the growth inhibition was inactive: 2.79%. Turning to `O=c1c2ccccc2nc2n1-c1ccccc1CCC2`, the growth inhibition was inactive: -1.51%.

Values taken from PubChem BioAssay AID504594 (Broad Institute, 2011).
